According to patent US9751945:
These are yes or no findings as the source states them, for the method shown. Some results given as binding are weak or reduced against the parent protein; the word gives no strength. Tags and fused reporters may be left off the sequences shown.

Amino acid sequences for entries named in this document (tags omitted). A change or cut given only in a name is not applied to a line headed by its entry.
UniProt P14434: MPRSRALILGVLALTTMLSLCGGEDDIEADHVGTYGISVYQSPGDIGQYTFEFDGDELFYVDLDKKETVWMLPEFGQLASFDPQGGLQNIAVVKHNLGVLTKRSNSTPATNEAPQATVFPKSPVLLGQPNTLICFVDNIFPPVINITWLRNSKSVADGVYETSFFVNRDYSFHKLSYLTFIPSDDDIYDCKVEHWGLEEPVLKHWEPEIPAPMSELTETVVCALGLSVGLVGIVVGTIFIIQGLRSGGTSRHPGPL
UniProt P14483: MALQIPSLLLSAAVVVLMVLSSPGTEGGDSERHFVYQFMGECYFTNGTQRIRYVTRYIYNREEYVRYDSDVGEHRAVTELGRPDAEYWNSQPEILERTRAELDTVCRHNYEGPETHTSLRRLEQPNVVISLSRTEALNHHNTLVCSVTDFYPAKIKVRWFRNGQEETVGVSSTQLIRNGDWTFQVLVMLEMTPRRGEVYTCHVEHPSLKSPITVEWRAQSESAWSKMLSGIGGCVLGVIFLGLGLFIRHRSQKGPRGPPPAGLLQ

Biological target: murine MHC class II (MHCII) complex (murine) (UniProt P14434+P14483)
Assay: flow cytometry of murine splenocytes costained with fluorophore-sortagged VHH7 and anti-CD3 or anti-B220

- binding: binds
B1: Sortaggable VHH7 polypeptide lacking a hinge region, fluorophore-sortagged (VHH)
VHH: QVQLQESGGGLVQAGDSLRLSCAASGRTFSRGVMGWFRRAPGKEREFVAIFSGSSWSGRSTYYSDSVKGRFTISRDNAKNTVYLQMNGLKPEDTAVYYCAAGYPEAYSAYGRESTYDYWGQGTQVTVSS
